Measurements taken from the supplement of paper PMC7666118.
This is one part of the list.

By UniProt entry, the sequences of proteins in these tests, tags left out. Where a name states a change or a piece, a line headed by the entry shows the natural chain unless it says otherwise.
UniProt Q5VSL9: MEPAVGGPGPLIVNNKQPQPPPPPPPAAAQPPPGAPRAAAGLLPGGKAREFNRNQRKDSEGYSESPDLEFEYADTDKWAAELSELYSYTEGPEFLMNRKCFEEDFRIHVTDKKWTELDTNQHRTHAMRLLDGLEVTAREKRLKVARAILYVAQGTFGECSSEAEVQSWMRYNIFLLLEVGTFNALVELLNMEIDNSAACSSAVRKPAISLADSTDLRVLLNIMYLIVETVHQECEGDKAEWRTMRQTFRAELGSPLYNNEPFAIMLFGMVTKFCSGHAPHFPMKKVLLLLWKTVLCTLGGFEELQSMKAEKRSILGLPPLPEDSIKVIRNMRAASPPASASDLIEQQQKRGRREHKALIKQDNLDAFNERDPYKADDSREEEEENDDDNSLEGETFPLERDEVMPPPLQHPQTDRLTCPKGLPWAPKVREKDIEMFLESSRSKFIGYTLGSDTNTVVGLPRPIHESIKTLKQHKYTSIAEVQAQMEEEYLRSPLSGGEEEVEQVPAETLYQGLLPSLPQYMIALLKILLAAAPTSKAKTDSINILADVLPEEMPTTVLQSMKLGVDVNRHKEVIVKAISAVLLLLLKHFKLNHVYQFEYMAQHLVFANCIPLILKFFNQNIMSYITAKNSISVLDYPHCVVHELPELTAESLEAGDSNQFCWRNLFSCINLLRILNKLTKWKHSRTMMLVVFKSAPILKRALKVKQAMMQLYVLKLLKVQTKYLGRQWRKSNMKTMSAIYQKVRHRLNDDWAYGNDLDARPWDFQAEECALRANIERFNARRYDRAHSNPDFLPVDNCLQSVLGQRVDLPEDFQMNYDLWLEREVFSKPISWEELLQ
UniProt Q9BSJ8: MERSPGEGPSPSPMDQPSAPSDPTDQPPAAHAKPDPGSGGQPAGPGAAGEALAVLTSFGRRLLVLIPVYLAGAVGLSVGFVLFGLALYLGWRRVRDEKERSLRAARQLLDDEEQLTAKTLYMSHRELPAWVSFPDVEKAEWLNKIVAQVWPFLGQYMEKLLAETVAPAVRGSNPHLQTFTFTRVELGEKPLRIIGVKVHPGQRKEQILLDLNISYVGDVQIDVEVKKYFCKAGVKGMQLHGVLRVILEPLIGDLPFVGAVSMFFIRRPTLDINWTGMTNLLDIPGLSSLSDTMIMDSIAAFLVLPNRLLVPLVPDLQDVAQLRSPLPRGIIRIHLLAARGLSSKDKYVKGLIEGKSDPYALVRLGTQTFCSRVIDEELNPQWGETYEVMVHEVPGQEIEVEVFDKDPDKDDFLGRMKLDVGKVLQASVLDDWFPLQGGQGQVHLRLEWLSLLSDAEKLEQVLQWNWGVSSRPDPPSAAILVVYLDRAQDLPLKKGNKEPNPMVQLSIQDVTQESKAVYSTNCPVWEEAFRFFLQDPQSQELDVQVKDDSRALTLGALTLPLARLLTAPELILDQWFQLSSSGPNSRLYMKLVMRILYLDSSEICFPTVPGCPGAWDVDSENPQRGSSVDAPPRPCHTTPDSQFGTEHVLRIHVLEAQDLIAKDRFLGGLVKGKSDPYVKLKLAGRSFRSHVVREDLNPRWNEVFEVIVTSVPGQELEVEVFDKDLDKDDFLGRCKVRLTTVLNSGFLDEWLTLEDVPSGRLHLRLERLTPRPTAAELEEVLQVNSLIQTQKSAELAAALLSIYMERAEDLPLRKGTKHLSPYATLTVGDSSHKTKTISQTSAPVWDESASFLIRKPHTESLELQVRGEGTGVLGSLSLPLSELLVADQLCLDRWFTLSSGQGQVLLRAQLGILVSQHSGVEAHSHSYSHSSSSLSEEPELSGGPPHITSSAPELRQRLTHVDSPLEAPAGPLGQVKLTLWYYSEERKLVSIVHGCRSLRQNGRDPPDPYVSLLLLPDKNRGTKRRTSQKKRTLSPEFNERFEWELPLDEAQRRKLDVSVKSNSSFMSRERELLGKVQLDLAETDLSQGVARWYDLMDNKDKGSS
UniProt P60520, whole entry: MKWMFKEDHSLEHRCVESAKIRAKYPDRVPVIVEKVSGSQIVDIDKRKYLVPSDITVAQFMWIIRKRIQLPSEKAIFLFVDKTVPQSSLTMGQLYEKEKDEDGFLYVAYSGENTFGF
UniProt Q5TBA9: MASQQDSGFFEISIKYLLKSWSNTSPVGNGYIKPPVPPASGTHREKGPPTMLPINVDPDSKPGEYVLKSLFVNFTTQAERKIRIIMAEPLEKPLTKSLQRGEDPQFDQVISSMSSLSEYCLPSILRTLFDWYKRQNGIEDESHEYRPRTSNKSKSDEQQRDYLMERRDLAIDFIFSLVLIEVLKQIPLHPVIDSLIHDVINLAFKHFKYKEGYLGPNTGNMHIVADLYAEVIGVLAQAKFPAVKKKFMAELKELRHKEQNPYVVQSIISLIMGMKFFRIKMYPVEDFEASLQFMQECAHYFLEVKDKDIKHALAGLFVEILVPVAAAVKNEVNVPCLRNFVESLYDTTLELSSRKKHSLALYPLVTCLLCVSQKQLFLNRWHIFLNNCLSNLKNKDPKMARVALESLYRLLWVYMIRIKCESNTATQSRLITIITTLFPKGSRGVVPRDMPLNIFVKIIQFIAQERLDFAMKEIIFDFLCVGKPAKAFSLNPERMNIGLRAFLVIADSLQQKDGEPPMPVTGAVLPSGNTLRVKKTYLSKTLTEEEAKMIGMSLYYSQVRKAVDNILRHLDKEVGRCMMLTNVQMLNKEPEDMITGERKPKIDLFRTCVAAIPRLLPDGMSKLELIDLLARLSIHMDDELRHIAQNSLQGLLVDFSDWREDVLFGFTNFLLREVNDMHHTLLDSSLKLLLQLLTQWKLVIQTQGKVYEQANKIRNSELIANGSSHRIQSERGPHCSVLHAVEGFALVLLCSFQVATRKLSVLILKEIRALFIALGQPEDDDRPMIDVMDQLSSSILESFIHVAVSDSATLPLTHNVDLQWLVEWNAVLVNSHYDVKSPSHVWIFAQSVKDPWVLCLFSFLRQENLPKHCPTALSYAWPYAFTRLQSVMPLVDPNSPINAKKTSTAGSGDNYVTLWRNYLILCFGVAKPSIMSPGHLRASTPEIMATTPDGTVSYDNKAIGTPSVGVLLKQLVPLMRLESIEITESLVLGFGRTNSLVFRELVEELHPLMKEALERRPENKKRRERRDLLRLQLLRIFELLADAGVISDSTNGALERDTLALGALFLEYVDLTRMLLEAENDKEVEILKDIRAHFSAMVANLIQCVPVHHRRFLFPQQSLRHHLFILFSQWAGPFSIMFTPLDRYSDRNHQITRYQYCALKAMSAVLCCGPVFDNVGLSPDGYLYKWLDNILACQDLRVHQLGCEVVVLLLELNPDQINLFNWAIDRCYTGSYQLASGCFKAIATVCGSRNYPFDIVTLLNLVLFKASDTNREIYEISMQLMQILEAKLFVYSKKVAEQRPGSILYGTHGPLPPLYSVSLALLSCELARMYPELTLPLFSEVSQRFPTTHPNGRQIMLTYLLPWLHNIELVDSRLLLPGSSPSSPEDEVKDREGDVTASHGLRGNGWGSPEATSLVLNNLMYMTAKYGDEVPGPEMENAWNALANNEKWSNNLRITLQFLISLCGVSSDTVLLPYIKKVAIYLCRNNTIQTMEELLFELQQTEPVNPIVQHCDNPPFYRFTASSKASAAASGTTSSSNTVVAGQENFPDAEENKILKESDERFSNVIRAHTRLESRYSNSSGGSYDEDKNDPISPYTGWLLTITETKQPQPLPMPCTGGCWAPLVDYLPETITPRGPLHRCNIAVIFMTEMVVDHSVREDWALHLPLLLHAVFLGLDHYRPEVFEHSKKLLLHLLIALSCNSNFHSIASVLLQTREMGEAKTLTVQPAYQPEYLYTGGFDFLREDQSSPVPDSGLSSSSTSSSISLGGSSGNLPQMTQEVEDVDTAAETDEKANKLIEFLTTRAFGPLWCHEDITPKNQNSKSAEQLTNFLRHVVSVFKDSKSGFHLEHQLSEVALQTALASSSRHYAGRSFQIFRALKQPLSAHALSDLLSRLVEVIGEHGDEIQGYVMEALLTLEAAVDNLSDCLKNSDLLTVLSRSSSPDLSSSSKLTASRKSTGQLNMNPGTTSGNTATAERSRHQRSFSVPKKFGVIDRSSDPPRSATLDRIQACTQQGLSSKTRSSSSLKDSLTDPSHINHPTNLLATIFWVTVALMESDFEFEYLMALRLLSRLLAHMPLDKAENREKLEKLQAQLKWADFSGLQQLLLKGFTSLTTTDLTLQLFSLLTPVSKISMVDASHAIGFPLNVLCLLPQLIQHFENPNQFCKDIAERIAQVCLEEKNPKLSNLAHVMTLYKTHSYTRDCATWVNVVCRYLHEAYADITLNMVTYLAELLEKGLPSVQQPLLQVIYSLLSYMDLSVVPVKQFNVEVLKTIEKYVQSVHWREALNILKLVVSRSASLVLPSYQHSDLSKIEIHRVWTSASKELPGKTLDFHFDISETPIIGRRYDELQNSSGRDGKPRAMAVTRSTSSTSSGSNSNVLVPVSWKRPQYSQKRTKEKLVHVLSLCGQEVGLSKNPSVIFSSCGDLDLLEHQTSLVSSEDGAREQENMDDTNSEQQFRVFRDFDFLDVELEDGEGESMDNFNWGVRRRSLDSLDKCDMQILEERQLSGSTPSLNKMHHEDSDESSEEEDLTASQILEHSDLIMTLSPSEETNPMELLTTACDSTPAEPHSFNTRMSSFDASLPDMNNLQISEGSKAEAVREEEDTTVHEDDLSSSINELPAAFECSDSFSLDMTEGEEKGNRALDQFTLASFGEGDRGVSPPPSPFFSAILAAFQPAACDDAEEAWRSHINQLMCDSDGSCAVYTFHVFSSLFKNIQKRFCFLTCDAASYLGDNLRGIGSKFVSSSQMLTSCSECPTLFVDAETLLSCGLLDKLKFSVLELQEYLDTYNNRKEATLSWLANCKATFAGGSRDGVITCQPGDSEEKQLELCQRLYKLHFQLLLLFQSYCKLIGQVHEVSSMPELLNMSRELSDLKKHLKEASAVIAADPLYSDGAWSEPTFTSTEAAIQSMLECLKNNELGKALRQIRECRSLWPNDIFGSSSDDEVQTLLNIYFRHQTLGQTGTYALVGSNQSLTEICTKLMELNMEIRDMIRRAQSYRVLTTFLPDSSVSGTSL
UniProt P22087: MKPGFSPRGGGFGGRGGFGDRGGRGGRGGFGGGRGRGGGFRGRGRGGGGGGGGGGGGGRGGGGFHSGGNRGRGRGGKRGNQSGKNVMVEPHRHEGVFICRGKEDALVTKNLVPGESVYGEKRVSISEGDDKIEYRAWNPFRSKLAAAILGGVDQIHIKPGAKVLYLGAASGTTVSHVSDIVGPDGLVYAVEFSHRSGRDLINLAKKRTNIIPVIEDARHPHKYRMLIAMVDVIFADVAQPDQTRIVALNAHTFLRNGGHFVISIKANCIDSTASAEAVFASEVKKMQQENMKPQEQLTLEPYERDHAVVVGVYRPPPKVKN
UniProt Q5HYJ3: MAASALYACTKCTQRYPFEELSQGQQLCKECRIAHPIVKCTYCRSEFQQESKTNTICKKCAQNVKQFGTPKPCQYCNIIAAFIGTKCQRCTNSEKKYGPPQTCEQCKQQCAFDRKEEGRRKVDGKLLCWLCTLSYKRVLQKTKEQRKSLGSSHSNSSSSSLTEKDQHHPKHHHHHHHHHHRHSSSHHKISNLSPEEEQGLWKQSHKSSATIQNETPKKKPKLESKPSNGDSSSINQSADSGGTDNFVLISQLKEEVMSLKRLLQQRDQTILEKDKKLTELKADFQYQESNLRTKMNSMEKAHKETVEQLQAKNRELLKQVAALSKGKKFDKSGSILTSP

Compound: COc1ccc(Cn2ccc3ccc(C(=O)NO)cc32)cc1
Assay: dose-dependent thermal stabilisation call (2D-TPP, DLPTP, 10% FDR) (binary (1 = stabilised)); higher = stabilised by the compound
Details: system: HL-60 intact cells; concentration range 0.04-10 µM

Target | dose-dependent thermal stabilisation call
FAM40A (UniProt Q5VSL9) | inactive: 0
FAM62A (UniProt Q9BSJ8) | inactive: 0
GABARAPL2 (UniProt P60520) | inactive: 0
FYCO1 (UniProt Q9BQS8) | inactive: 0
FAM44A (UniProt Q8NFC6) | inactive: 0
FLNA (UniProt P21333) | inactive: 0
FRY (UniProt Q5TBA9) | inactive: 0
FBL (UniProt P22087) | inactive: 0
FAM76B (UniProt Q5HYJ3) | inactive: 0

Fetched one by one from the list above (two):
Target | dose-dependent thermal stabilisation call
FAM40A (UniProt Q5VSL9) | inactive: 0
FBL (UniProt P22087) | inactive: 0
